# For at least one entry, the source does not settle the construct or the ends of the probe. At least one result comes from cells or an extract, where the contact may be indirect. For some of these results: No signal at the amounts used counts as a negative. At least one verdict was read from the data and is not stated in words by the source.
# Sequences of proteins named here, by UniProt entry; tags and fusion partners are left off. Residues count along the entry.
# UniProt Q13308, 31-1070: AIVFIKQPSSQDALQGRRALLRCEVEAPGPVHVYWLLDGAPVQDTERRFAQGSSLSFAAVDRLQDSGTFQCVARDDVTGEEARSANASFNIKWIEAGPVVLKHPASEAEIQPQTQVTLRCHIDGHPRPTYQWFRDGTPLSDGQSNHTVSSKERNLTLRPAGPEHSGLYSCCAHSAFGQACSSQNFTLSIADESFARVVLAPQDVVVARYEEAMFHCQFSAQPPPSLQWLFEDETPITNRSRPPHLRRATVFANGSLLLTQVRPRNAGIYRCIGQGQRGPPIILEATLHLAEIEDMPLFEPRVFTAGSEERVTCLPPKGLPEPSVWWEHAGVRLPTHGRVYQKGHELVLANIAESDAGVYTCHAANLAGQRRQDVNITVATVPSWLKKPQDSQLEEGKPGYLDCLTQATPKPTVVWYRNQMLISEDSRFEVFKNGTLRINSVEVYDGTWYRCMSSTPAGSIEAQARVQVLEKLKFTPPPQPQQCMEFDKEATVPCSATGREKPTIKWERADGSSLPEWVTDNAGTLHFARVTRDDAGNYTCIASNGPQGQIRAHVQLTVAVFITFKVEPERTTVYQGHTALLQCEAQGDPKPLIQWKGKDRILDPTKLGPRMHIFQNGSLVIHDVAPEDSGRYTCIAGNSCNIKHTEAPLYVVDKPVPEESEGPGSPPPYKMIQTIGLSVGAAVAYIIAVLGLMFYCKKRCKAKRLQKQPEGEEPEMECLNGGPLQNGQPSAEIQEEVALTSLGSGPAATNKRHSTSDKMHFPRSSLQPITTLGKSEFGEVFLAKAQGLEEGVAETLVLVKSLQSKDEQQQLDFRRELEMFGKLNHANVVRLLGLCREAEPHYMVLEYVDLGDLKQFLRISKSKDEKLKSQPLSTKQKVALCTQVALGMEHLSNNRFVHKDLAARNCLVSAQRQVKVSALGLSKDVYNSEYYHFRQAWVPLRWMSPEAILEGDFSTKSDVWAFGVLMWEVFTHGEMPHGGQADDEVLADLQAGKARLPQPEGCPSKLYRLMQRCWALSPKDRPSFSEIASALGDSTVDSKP
# Experiments:
# [1] = biological target: PTK7 (membrane protein on CEM and HeLa cells) (UniProt Q13308); assay: flow cytometry; details: flow cytometry: 10^6 cells/mL in 200 uL binding buffer (composition not given), 4 °C, 30 min, 3 washes, protein on the cell surface, label: 3' TAMRA, single-stranded DNA
# [2] = biological target: PTK7 (membrane protein on CEM and HeLa cells) (UniProt Q13308); assay: confocal microscopy of cells; details: protein on the cell surface, label: 3' TAMRA, single-stranded DNA
sequence,measurement,setting,value
TTTTTTTTTTATCTAACTGCTGCGCCGCCGGGAAAATACTGTACGGTTAGA [UCNP-S-Sgc8 (aptamer on upconversion nanoparticle)],binding result,"[1]; CEM cells: obvious shift, Ramos (less PTK7): negligible shift, 5' thiol linked by thiol-ene to acrylated UCNP",binds
same,binding result,"[2]; 25 ug/mL UCNP-Sgc8, 5' thiol linked by thiol-ene to acrylated UCNP",binds
TTTTTTTTTTTTTTTTTTTT [UCNP-T20 (HS-T20-TAMRA on nanoparticle)],binding result,"[2]; negligible fluorescence, 5' thiol linked by thiol-ene to acrylated UCNP",no binding
"TTTTTTTTTTATCTAACTGCTGCGCCGCCGGGAAAATACTGTACGGTTAGA [Sgc8 aptamer (HS-Aptamer-TAMRA), free]",binding result,"[1]; CEM cells, Ramos (less PTK7) as negative control, 5' thiol",binds

# From publication PMC5628335
